{"source": "PubChem BioAssay AID1671195 (Yale University, 2021)", "assay": "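Genes whose knockdown alters LDL uptake in liver cancer cells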 (primary screen)", "cells": "human Huh7 hepatoma cells", "reagents": "siRNA pool against human genes, 18 nM", "duration": "about 2 to 2.5 days of knockdown, then 8 h LDL uptake", "challenge": "DiI-labelled LDL at 30 µg/ml for 8 h, in lipoprotein-deficient serum medium", "read-out": "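Fluorescent LDL signal imaged in cells, scaled to the plate median, robust z-score for each replicate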", "scale": "robust z-score: higher = more LDL uptake after knockdown", "call rule": "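Active when two or more replicates show a robust z-score above 2 or below -2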", "note": "The deposit covers about 22,000 reagents; shown is a random part of them. In the full data, about 1,510 (6.9%) got an active call. 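Active includes knockdowns raising or lowering LDL uptake; positive z-scores mean more uptake, negative mean less.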 A number with no mark means an inactive call."}
{"target gene": "BRI3 (brain protein I3)", "robust z-score, replicate 1": -0.668, "robust z-score, replicate 2": -2.27, "robust z-score, replicate 3": -0.26}
{"target gene": "CARHSP1 (calcium regulated heat stable protein 1)", "robust z-score, replicate 1": -0.181, "robust z-score, replicate 2": -2.14, "robust z-score, replicate 3": -0.881}
{"target gene": "SSTR2 (somatostatin receptor 2)", "robust z-score, replicate 1": 0.647, "robust z-score, replicate 2": 0.518, "robust z-score, replicate 3": 0.734}
{"target gene": "MTX2 (metaxin 2)", "robust z-score, replicate 1": -0.374, "robust z-score, replicate 2": -1.29, "robust z-score, replicate 3": -0.15}
{"target gene": "GORASP2 (golgi reassembly stacking protein 2)", "robust z-score, replicate 1": 0.122, "robust z-score, replicate 2": 0.624, "robust z-score, replicate 3": -1.05}
{"target gene": "TUBGCP3 (tubulin gamma complex component 3)", "robust z-score, replicate 1": 1.04, "robust z-score, replicate 2": 0.681, "robust z-score, replicate 3": 0.622}
{"target gene": "CBFA2T3 (CBFA2/RUNX1 partner transcriptional co-repressor 3)", "robust z-score, replicate 1": -0.961, "robust z-score, replicate 2": -1.07, "robust z-score, replicate 3": -0.544}
{"target gene": "SRL (sarcalumenin)", "robust z-score, replicate 1": 0.256, "robust z-score, replicate 2": 0.634, "robust z-score, replicate 3": -0.143}
{"target gene": "LOC440052 (retired record)", "robust z-score, replicate 1": 0.0266, "robust z-score, replicate 2": 0.0431, "robust z-score, replicate 3": 0.135}
{"target gene": "LOC401620 (retired record)", "robust z-score, replicate 1": 0.945, "robust z-score, replicate 2": 0.335, "robust z-score, replicate 3": 0.359}
{"target gene": "DPY19L2P4 (DPY19L2 pseudogene 4)", "robust z-score, replicate 1": 0.313, "robust z-score, replicate 2": 0.355, "robust z-score, replicate 3": 0.335}
{"target gene": "PAQR7 (progestin and adipoQ receptor family member 7)", "robust z-score, replicate 1": -1.08, "robust z-score, replicate 2": -0.391, "robust z-score, replicate 3": -1}
{"target gene": "TCF7 (transcription factor 7)", "robust z-score, replicate 1": 0.418, "robust z-score, replicate 2": 1.97, "robust z-score, replicate 3": 1.3}
{"target gene": "VPS36 (vacuolar protein sorting 36 homolog)", "robust z-score, replicate 1": -2.59, "robust z-score, replicate 2": -0.352, "robust z-score, replicate 3": -0.832}
{"target gene": "KRT35 (keratin 35)", "robust z-score, replicate 1": -0.575, "robust z-score, replicate 2": 1.04, "robust z-score, replicate 3": 0.888}
{"target gene": "FJX1 (four-jointed box kinase 1)", "robust z-score, replicate 1": -0.553, "robust z-score, replicate 2": -0.383, "robust z-score, replicate 3": 0.267}
